The text below walks through data of PMC7060136.

Results are given in words; binding and its absence hold for the method and conditions named. Binding calls can cover weak binding; strength is not graded here. Sequences can lack the tags named with a protein. For some of these results: Binding seen in cells or lysates may run through a third protein.

In assay [1] the target is PcAvh103 (Phytophthora capsici Avirulence Homolog RxLR effector), yeast two-hybrid fusion (Phytophthora capsici LT263). The assay is described as follows: two-hybrid; Matchmaker Gold system, yeast AH109; PcAvh103 in pGBKT7 (bait), EDS1, BAK1 or BIK1 in pGADT7 (prey); growth on QDO (SD/-Leu/-Trp/-His/-Ade).
Assay [2] concerns the target PcAvh103-FLAG (Phytophthora capsici). The assay is described as follows: co-IP; PcAvh103-FLAG co-expressed with HA-tagged proteins in Arabidopsis mesophyll protoplasts; anti-FLAG agarose 4 hr, 50 mM HEPES pH 7.5, 150 mM KCl, 1 mM EDTA, Triton X-100, 1 mM DTT; eluted with 3xFLAG peptide; anti-FLAG and anti-HA immunoblots. For orientation: Immunoblotting shows a protein as a band on a membrane.

The target of assay [3] is GST-EDS1 (Arabidopsis thaliana) (UniProt Q9XF23). Kind of assay: pull-down; both purified.
Assay [4] concerns the target EDS1-FLAG (Arabidopsis thaliana) (UniProt Q9SU72). The assay is described as follows: co-IP; EDS1-FLAG co-expressed with EDS1-HA, PAD4-HA or SAG101-HA in Arabidopsis protoplasts in the presence or absence of PcAvh103-HIS; anti-FLAG IP, immunoblot.

B1: EDS1 (Enhanced Disease Susceptibility 1), yeast two-hybrid fusion (protein, UniProt Q9XF23 1-623)
chain: MAFEALTGINGDLITRSWSASKQAYLTERYHKEEAGAVVIFAFQPSFSEKDFFDPDNKSSFGEIKLNRVQFPCMRKIGKGDVATVNEAFLKNLEAVIDPRTSFQASVEMAVRSRKQIVFTGHSSGGATAILATVWYLEKYFIRNPNVYLEPRCVTFGAPLVGDSIFSHALGREKWSRFFVNFVTRFDIVPRITLARKASVEETLPHVLAQLDPRNSSVQESEQRITEFYTSVMRDTSTVANQAVCELTGSAEAILETLSSFLELSPYRPAGTFVFSTEKRLVAVNNSDAILQMLFYTCQASDEQEWSLIPFRSIRDHHSYEELVQSMGMKLFNHLDGENSIESSLNDLGVSTRGRQYVQAALEEEKKRVENQKKIIQVIQQERFLKKLAWIEDEYKPKCQAHKNGYYDSFKVSNEENDFKANVKRAELAGVFDEVLGLLKKCQLPDEFEGDIDWIKLATRYRRLVEPLDIANYHRHLKNEDTGPYMKRGRPTRYIYAQRGYEHHILKPNGMIAEDVFWNKVNGLNLGLQLEEIQETLKNSGSECGSCFWAEVEELKGKPYEEVEVRVKTLEGMLREWITAGEVDEKEIFLEGSTFRKWWITLPKNHKSHSPLRDYMMDEITDT
Take B1: the binding entry in assay [1] is recorded as “binds”.

B2: EDS1-HA (protein, UniProt Q9XF23 1-623)
chain: B1 chain
For B2, in assay [2], the binding entry is “binds”.

B3: PAD4-His (protein, UniProt Q9S745 1-541)
chain: MDDCRFETSELQASVMISTPLFTDSWSSCNTANCNGSIKIHDIAGITYVAIPAVSMIQLGNLVGLPVTGDVLFPGLSSDEPLPMVDAAILKLFLQLKIKEGLELELLGKKLVVITGHSTGGALAAFTALWLLSQSSPPSFRVFCITFGSPLLGNQSLSTSISRSRLAHNFCHVVSIHDLVPRSSNEQFWPFGTYLFCSDKGGVCLDNAGSVRLMFNILNTTATQNTEEHQRYGHYVFTLSHMFLKSRSFLGGSIPDNSYQAGVALAVEALGFSNDDTSGVLVKECIETATRIVRAPILRSAELANELASVLPARLEIQWYKDRCDASEEQLGYYDFFKRYSLKRDFKVNMSRIRLAKFWDTVIKMVETNELPFDFHLGKKWIYASQFYQLLAEPLDIANFYKNRDIKTGGHYLEGNRPKRYEVIDKWQKGVKVPEECVRSRYASTTQDTCFWAKLEQAKEWLDEARKESSDPQRRSLLREKIVPFESYANTLVTKKEVSLDVKAKNSSYSVWEANLKEFKCKMGYENEIEMVVDESDAMET
For the molecule B3, in assay [3], the binding entry was “binds”.

B4: PAD4-HA (Phytoalexin Deficient 4) (protein, UniProt Q9S745 1-541)
chain: B3 chain
On to B4, for which the binding result in assay [4] is listed as “binds”; in assay [2] it was “no binding”.

B5: BAK1-HA (protein, UniProt Q94F62 26-615)
chain: NAEGDALSALKNSLADPNKVLQSWDATLVTPCTWFHVTCNSDNSVTRVDLGNANLSGQLVMQLGQLPNLQYLELYSNNITGTIPEQLGNLTELVSLDLYLNNLSGPIPSTLGRLKKLRFLRLNNNSLSGEIPRSLTAVLTLQVLDLSNNPLTGDIPVNGSFSLFTPISFANTKLTPLPASPPPPISPTPPSPAGSNRITGAIAGGVAAGAALLFAVPAIALAWWRRKKPQDHFFDVPAEEDPEVHLGQLKRFSLRELQVASDNFSNKNILGRGGFGKVYKGRLADGTLVAVKRLKEERTQGGELQFQTEVEMISMAVHRNLLRLRGFCMTPTERLLVYPYMANGSVASCLRERPESQPPLDWPKRQRIALGSARGLAYLHDHCDPKIIHRDVKAANILLDEEFEAVVGDFGLAKLMDYKDTHVTTAVRGTIGHIAPEYLSTGKSSEKTDVFGYGVMLLELITGQRAFDLARLANDDDVMLLDWVKGLLKEKKLEALVDVDLQGNYKDEEVEQLIQVALLCTQSSPMERPKMSEVVRMLEGDGLAERWEEWQKEEMFRQDFNYPTHHPAVSGWIIGDSTSQIENEYPSGPR
B5: the binding entry in assay [2] was “no binding”.

B6: BAK1 (BRI1-associated kinase 1), yeast two-hybrid fusion (protein, UniProt Q94F62 1-615)
chain: MERRLMIPCFFWLILVLDLVLRVSGNAEGDALSALKNSLADPNKVLQSWDATLVTPCTWFHVTCNSDNSVTRVDLGNANLSGQLVMQLGQLPNLQYLELYSNNITGTIPEQLGNLTELVSLDLYLNNLSGPIPSTLGRLKKLRFLRLNNNSLSGEIPRSLTAVLTLQVLDLSNNPLTGDIPVNGSFSLFTPISFANTKLTPLPASPPPPISPTPPSPAGSNRITGAIAGGVAAGAALLFAVPAIALAWWRRKKPQDHFFDVPAEEDPEVHLGQLKRFSLRELQVASDNFSNKNILGRGGFGKVYKGRLADGTLVAVKRLKEERTQGGELQFQTEVEMISMAVHRNLLRLRGFCMTPTERLLVYPYMANGSVASCLRERPESQPPLDWPKRQRIALGSARGLAYLHDHCDPKIIHRDVKAANILLDEEFEAVVGDFGLAKLMDYKDTHVTTAVRGTIGHIAPEYLSTGKSSEKTDVFGYGVMLLELITGQRAFDLARLANDDDVMLLDWVKGLLKEKKLEALVDVDLQGNYKDEEVEQLIQVALLCTQSSPMERPKMSEVVRMLEGDGLAERWEEWQKEEMFRQDFNYPTHHPAVSGWIIGDSTSQIENEYPSGPR
Turning to B6, the binding result in assay [1] is reported as “binds”.
